The test deals with T1, GPR180 (G protein-coupled receptor 180) (human (endogenous in HEK-293T)) (UniProt Q86V85).
T1 sequence: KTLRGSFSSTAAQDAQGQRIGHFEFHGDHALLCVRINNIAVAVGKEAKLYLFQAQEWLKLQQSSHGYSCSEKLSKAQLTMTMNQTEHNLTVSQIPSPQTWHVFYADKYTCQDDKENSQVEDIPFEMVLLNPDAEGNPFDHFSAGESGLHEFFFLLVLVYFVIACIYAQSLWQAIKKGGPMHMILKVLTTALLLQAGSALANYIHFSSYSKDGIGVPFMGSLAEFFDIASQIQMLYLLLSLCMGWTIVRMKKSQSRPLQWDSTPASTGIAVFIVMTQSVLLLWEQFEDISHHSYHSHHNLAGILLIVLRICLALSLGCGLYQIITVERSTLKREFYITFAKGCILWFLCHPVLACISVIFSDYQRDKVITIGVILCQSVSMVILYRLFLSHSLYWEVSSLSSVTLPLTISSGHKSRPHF
The experiment in a line: binding of HiBiT-tagged ligand to cells, read by HiBiT blotting of cell extracts; 1 ml medium containing HiBiT-tagged CTHRC1 added to 15 ml DMEM on confluent, 2 h serum-starved wild-type or GPR180-/- HEK-293T cells; 10 min at 37 °C; 5 washes with ice-cold PBS; protein extraction; Nano-Glo HiBiT Blotting System.

By UniProt entry, the sequences of proteins in these tests, tags left out. Residues count along the entry.
UniProt Q96CG8, residues 31-243: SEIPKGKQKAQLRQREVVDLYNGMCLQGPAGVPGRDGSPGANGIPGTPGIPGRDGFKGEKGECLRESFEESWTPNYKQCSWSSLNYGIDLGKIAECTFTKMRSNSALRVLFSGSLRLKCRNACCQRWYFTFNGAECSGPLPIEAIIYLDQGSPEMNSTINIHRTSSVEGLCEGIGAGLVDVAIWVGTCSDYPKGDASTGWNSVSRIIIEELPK

No constants are given. Whether binding was seen depends on the method and setting. Some entries that bind do so weakly or less than the wild type.

“HiBiT-tagged CTHRC1 (Collagen triple helix repeat containing 1) (from UniProt Q96CG8 31-243) (ligand)”: the binding result is listed as “binds”.

These data come from paper PMC8655035.
